From paper PMC8562486
No constants are given. Whether binding was seen depends on the method and setting. In cells and extracts the contact can be indirect. Some binding calls cover weakened binding; strength is not graded here.

Sequences of proteins named here, by UniProt entry; tags and fusion partners are left off. A change or cut given only in a name is not applied to a line headed by its entry. A line that says so, or that is headed by a name, gives the form on record, which may keep a tag or linker.
UniProt Q9QR71: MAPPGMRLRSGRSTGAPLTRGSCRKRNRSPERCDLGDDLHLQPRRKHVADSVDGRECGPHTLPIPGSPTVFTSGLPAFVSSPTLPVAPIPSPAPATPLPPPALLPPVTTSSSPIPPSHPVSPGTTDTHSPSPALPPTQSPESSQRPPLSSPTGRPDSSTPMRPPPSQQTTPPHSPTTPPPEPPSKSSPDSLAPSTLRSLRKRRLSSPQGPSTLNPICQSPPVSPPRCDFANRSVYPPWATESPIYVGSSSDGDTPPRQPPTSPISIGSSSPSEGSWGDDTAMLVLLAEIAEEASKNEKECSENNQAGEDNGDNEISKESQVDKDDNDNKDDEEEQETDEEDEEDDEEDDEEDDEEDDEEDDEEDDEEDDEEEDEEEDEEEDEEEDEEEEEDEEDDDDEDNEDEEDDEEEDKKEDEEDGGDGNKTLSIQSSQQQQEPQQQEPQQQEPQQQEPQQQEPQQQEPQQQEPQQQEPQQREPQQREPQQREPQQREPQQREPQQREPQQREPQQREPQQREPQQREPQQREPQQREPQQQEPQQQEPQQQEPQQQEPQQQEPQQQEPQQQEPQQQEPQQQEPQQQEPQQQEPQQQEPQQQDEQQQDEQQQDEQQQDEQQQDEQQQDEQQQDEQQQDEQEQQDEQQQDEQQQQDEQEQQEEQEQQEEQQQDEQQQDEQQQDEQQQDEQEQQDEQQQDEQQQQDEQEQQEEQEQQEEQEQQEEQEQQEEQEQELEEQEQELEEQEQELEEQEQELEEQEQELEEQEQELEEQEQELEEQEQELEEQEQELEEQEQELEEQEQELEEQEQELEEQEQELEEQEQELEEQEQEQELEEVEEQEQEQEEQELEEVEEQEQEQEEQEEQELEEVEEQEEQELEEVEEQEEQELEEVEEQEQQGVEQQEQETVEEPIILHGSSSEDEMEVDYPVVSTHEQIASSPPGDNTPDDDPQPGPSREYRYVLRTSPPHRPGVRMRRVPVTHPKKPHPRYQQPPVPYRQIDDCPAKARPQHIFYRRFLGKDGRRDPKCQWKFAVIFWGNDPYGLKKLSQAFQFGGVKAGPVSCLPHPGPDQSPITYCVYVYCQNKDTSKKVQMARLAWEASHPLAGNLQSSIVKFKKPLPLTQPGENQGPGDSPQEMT
UniProt F5HCV3: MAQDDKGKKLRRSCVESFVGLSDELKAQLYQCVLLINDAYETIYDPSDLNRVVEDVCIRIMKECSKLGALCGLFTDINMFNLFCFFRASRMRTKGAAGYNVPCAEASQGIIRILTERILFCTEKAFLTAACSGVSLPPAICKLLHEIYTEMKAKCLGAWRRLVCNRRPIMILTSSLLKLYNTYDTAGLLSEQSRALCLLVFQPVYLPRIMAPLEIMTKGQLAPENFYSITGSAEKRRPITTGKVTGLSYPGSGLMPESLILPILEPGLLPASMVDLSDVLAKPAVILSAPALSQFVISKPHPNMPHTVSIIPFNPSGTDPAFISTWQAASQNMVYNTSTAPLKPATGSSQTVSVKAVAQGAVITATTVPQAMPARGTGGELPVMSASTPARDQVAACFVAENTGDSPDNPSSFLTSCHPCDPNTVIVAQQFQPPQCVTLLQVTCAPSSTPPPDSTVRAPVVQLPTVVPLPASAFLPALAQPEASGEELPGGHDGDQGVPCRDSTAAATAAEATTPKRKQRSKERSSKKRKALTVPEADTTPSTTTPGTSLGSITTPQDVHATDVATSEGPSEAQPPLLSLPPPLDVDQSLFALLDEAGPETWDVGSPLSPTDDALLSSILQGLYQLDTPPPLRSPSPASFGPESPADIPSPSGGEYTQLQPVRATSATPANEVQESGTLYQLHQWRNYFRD
Heterogeneous nuclear ribonucleoprotein U isoform B (Q00839-2, form named): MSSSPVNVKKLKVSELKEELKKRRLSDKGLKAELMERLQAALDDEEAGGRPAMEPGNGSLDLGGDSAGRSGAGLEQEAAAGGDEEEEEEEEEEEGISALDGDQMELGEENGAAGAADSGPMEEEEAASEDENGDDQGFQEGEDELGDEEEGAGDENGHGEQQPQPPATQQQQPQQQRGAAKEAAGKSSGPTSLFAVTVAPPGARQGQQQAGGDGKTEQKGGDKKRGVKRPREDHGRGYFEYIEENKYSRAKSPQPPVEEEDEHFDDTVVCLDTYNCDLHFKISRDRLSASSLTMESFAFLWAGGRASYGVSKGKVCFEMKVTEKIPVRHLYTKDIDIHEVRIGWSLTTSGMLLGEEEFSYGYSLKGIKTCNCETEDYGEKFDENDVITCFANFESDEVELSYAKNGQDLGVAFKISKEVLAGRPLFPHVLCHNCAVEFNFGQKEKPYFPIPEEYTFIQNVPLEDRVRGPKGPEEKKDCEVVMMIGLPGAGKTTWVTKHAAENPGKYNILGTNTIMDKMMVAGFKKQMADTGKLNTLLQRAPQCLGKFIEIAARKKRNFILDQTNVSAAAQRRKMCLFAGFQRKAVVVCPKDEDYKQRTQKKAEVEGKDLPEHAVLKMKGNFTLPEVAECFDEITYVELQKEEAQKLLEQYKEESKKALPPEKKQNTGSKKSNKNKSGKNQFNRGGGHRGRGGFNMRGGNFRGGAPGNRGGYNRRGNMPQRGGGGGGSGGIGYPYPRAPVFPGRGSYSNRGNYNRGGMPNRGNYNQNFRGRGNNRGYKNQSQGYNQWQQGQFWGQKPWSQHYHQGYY

Assays:
[1] = target: endogenous LANA (KSHV (endogenous in BCBL1 PEL cells)) (UniProt Q9QR71); assay: co-IP; endogenous proteins; KSHV-positive BCBL1 PEL cells, KSHV-negative BJAB cells as control; IP with LANA-specific antibodies, immunoblot
[2] = target: LANA-Flag (Kaposi's sarcoma-associated herpesvirus (KSHV)) (UniProt Q9QR71); assay: co-IP
[3] = target: RTA-myc (Kaposi's sarcoma-associated herpesvirus (KSHV)) (UniProt F5HCV3); assay: co-IP

Heterogeneous nuclear ribonucleoprotein U isoform B (from UniProt Q00839-2 1-806)
binding [1]: binds | binding [2]: binds | binding [3]: no binding

B1: Serpin H1 precursor (protein, UniProt P50454 19-418)
chain: AEVKKPAAAAAPGTAEKLSPKAATLAERSAGLAFSLYQAMAKDQAVENILVSPVVVASSLGLVSLGGKATTASQAKAVLSAEQLRDEEVHAGLGELLRSLSNSTARNVTWKLGSRLYGPSSVSFADDFVRSSKQHYNCEHSKINFRDKRSALQSINEWAAQTTDGKLPEVTKDVERTDGALLVNAMFFKPHWDEKFHHKMVDNRGFMVTRSYTVGVMMMHRTGLYNYYDDEKEKLQIVEMPLAHKLSSLIILMPHHVEPLERLEKLLTKEQLKIWMGKMQKKAVAISLPKGVVEVTHDLQKHLAGLGLTEAIDKNKADLSRMSGKKDLYLASVFHATAFELDTDGNPFDQDIYGREELRSPKLFYADHPFIFLVRDTQSGSLLFIGRLVRPKGDKMRDEL
binding [2]: binds | binding [3]: no binding
